Values joined by “and” are separate entries in the source; they are usually repeats but may differ in a detail not shown here. Equal values may be shown once. The source gives many values for each of these; only a part stands here.
System: GEMS receptors with CBPvene (Bcl2–LD3 and Bcl2high variants), STAT3-driven SEAP in HEK293T cells
Assay: GEMS SEAP reporter assay, CBPvene (Bcl2high, LD3-v and Bcl2-v variants) with venetoclax
Type: cell-based
Conditions: for Normalized data (SEAP) / Raw data (SEAP): SuppFigure 8a
[1] = Supp Fig 10c, Bcl2-v3, venetoclax 100 nM
[2] = Supp Fig 10c, Bcl2-v3, venetoclax 316 nM
[3] = Supp Fig 10c, Bcl2-v3, venetoclax 1000 nM
[4] = Supp Fig 10c, Bcl2-v3, venetoclax 3160 nM
[5] = Supp Fig 10c, Bcl2-v3, venetoclax 10000 nM
[6] = Supp Fig 10c, Bcl2-v5, venetoclax 10 nM
[7] = Supp Fig 10c, Bcl2-v5, venetoclax 31.6 nM
[8] = Supp Fig 10c, Bcl2-v5, venetoclax 100 nM
[9] = Supp Fig 10c, Bcl2-v5, venetoclax 316 nM
[10] = Supp Fig 10c, Bcl2-v5, venetoclax 1000 nM
[11] = Supp Fig 10c, Bcl2-v5, venetoclax 3160 nM
[12] = Supp Fig 10c, Bcl2-v5, venetoclax 10000 nM
[13] = Supp Fig 10c, Bcl2-v6, venetoclax 3.16 nM
[14] = Supp Fig 10c, Bcl2-v6, venetoclax 10 nM
[15] = Supp Fig 10c, Bcl2-v6, venetoclax 31.6 nM
[16] = Supp Fig 10c, Bcl2-v6, venetoclax 100 nM
[17] = Supp Fig 10c, Bcl2-v6, venetoclax 316 nM
[18] = Supp Fig 10c, Bcl2-v6, venetoclax 1000 nM
[19] = Supp Fig 10c, Bcl2-v6, venetoclax 3160 nM
[20] = Supp Fig 10c, Bcl2-v6, venetoclax 10000 nM
[21] = Supp Fig 10c, Bcl2, venetoclax 10 nM
[22] = Supp Fig 10c, Bcl2, venetoclax 31.6 nM
[23] = Supp Fig 10c, Bcl2, venetoclax 100 nM
[24] = Supp Fig 10c, Bcl2, venetoclax 316 nM
[25] = Supp Fig 10c, Bcl2, venetoclax 1000 nM
[26] = Supp Fig 10c, Bcl2, venetoclax 3160 nM
[27] = Supp Fig 10c, Bcl2, venetoclax 10000 nM

## CC1(C)CCC(CN2CCN(c3ccc(C(=O)NS(=O)(=O)c4ccc(NCC5CCOCC5)c([N+](=O)[O-])c4)c(Oc4cnc5[nH]ccc5c4)c3)CC2)=C(c2ccc(Cl)cc2)C1 [Venetoclax]
[1]
  SEAP: 33.497
  SEAP normalized (max=100): 90.0123
[2]
  SEAP: 33.007
  SEAP normalized (max=100): 88.6957
[3]
  SEAP: 11.8512
  SEAP normalized (max=100): 31.8462
[4]
  SEAP: 12.6786
  SEAP normalized (max=100): 34.0697
[5]
  SEAP: 7.771
  SEAP normalized (max=100): 20.8817
[6]
  SEAP: 24.348
  SEAP normalized (max=100): 94.4802
[7]
  SEAP: 16.5209
  SEAP normalized (max=100): 64.1079
[8]
  SEAP: 23.7437
  SEAP normalized (max=100): 92.1352
[9]
  SEAP: 10.445
  SEAP normalized (max=100): 40.5307
[10]
  SEAP: 11.7468
  SEAP normalized (max=100): 45.5824
[11]
  SEAP: 6.748
  SEAP normalized (max=100): 26.1838
[12]
  SEAP: 4.991
  SEAP normalized (max=100): 19.367
[13]
  SEAP: 49.3848
  SEAP normalized (max=100): 26.7736
[14]
  SEAP: 55.272
  SEAP normalized (max=100): 29.9654
[15]
  SEAP: 62.0564
  SEAP normalized (max=100): 33.6435
[16]
  SEAP: 135
  SEAP normalized (max=100): 73.1893
[17]
  SEAP: 184.453
  SEAP normalized (max=100): 100
[18]
  SEAP: 79.8215
  SEAP normalized (max=100): 43.2747
[19]
  SEAP: 33.0186
  SEAP normalized (max=100): 17.9008
[20]
  SEAP: 15.7293
  SEAP normalized (max=100): 8.528
[21]
  SEAP: 13.3529
  SEAP normalized (max=100): 8.944
[22]
  SEAP: 27.684
  SEAP normalized (max=100): 18.5423
[23]
  SEAP: 141.694
  SEAP normalized (max=100): 94.904
[24]
  SEAP: 133.43
  SEAP normalized (max=100): 89.3694
[25]
  SEAP: 149.302
  SEAP normalized (max=100): 100
[26]
  SEAP: 111.983
  SEAP normalized (max=100): 75.004
[27]
  SEAP: 32.3222
  SEAP normalized (max=100): 21.6488
Supp Fig 10e, CBPVene-v5-Bcl2v2, venetoclax 1 nM
  SEAP: 37.9718 and 36.6065 and 35.2814
Supp Fig 10e, CBPVene-v5-Bcl2v2, venetoclax 3.16 nM
  SEAP: 37.1496 and 40.8191 and 38.9099
Supp Fig 10e, CBPVene-v5-Bcl2v2, venetoclax 10 nM
  SEAP: 35.5651 and 41.8626 and 41.5876
Supp Fig 10e, CBPVene-v5-Bcl2v2, venetoclax 31.6 nM
  SEAP: 68.9479 and 70.401 and 67.6966
Supp Fig 10e, CBPVene-v5-Bcl2v2, venetoclax 100 nM
  SEAP: 149.797 and 156.012 and 191.601
Supp Fig 10e, CBPVene-v5-Bcl2v2, venetoclax 316 nM
  SEAP: 182.798 and 192.307 and 223.486
Supp Fig 10e, CBPVene-v5-Bcl2v2, venetoclax 1000 nM
  SEAP: 141.449 and 149.007 and 144.09
Supp Fig 10e, CBPVene-v5-Bcl2v2, venetoclax 3160 nM
  SEAP: 64.398 and 62.9303 and 51.9708
Supp Fig 10e, CBPVene-v5-Bcl2v2, venetoclax 10000 nM
  SEAP: 27.6798 and 21.7852 and 31.253
Supp Fig 10e, CBPVene-v5, venetoclax 3.16 nM
  SEAP: 30.3563 and 26.3908 and 26.6345
Supp Fig 10e, CBPVene-v5, venetoclax 10 nM
  SEAP: 53.0904 and 39.8802 and 44.9895
Supp Fig 10e, CBPVene-v5, venetoclax 31.6 nM
  SEAP: 27.5418 and 25.4102 and 24.8086
Supp Fig 10e, CBPVene-v5, venetoclax 100 nM
  SEAP: 135.101 and 106.556 and 113.538
Supp Fig 10e, CBPVene-v5, venetoclax 316 nM
  SEAP: 523.324 and 430.565 and 490.151
Supp Fig 10e, CBPVene-v5, venetoclax 1000 nM
  SEAP: 577.626 and 585.371 and 682.822
Supp Fig 10e, CBPVene-v5, venetoclax 3160 nM
  SEAP: 461.236 and 467.711 and 499.656
Supp Fig 10e, CBPVene-v5, venetoclax 10000 nM
  SEAP: 307.085 and 269.935 and 317.486
Supp Fig 10d, CBPVene-v4-Bcl2v2, venetoclax 1 nM
  SEAP: 31.1918 and 36.3952 and 31.7379
Supp Fig 10d, CBPVene-v4-Bcl2v2, venetoclax 3.16 nM
  SEAP: 31.4437 and 36.7806 and 28.5959
Supp Fig 10d, CBPVene-v4-Bcl2v2, venetoclax 10 nM
  SEAP: 36.377 and 37.7021 and 37.2539
Supp Fig 10d, CBPVene-v4-Bcl2v2, venetoclax 31.6 nM
  SEAP: 69.7518 and 80.5008 and 57.3972
Supp Fig 10d, CBPVene-v4-Bcl2v2, venetoclax 100 nM
  SEAP: 211.871 and 227.425 and 220.652
Supp Fig 10d, CBPVene-v4-Bcl2v2, venetoclax 316 nM
  SEAP: 290.788 and 368.506 and 302.291
Supp Fig 10d, CBPVene-v4-Bcl2v2, venetoclax 1000 nM
  SEAP: 233.694 and 276.355 and 255.555
Supp Fig 10d, CBPVene-v4-Bcl2v2, venetoclax 3160 nM
  SEAP: 128.558 and 149.488 and 139.957
Supp Fig 10d, CBPVene-v4-Bcl2v2, venetoclax 10000 nM
  SEAP: 41.5078 and 45.6809 and 45.0373
Supp Fig 10d, CBPVene-v4, venetoclax 1 nM
  SEAP: 25.8055 and 26.2397 and 18.4029
Supp Fig 10d, CBPVene-v4, venetoclax 3.16 nM
  SEAP: 23.589 and 25.2624 and 18.3382
Supp Fig 10d, CBPVene-v4, venetoclax 10 nM
  SEAP: 33.4586 and 32.0727 and 26.1315
Supp Fig 10d, CBPVene-v4, venetoclax 31.6 nM
  SEAP: 100.765 and 111.541 and 57.7785
Supp Fig 10d, CBPVene-v4, venetoclax 100 nM
  SEAP: 277.273 and 269.798 and 273.956
Supp Fig 10d, CBPVene-v4, venetoclax 316 nM
  SEAP: 447.645 and 497.825 and 441.762
Supp Fig 10d, CBPVene-v4, venetoclax 1000 nM
  SEAP: 651.243 and 597.631 and 579.613
Supp Fig 10d, CBPVene-v4, venetoclax 3160 nM
  SEAP: 423.338 and 450.382 and 440.912
Supp Fig 10d, CBPVene-v4, venetoclax 10000 nM
  SEAP: 277.442 and 279.687 and 277.816
LD3, venetoclax 10 nM
  Normalized data (SEAP): 20.4521
  Raw data (SEAP): 16.842
LD3, venetoclax 31.6 nM
  Normalized data (SEAP): 36.5125
  Raw data (SEAP): 30.0676
LD3v1, venetoclax 10 nM
  Normalized data (SEAP): 76.5447
  Raw data (SEAP): 14.5584
LD3v1, venetoclax 31.6 nM
  Normalized data (SEAP): 88.0905
  Raw data (SEAP): 16.7543
LD3v2, venetoclax 10 nM
  Normalized data (SEAP): 20.2562
  Raw data (SEAP): 16.4463
LD3v2, venetoclax 31.6 nM
  Normalized data (SEAP): 33.9875
  Raw data (SEAP): 27.5949
LD3v3, venetoclax 10 nM
  Normalized data (SEAP): 83.7011
  Raw data (SEAP): 15.226
LD3v3, venetoclax 31.6 nM
  Normalized data (SEAP): 89.4274
  Raw data (SEAP): 16.2677
